Counter-ions that a name gives are not always drawn. Some of the results follow. Part of the spread comes from offsets between plates or batches.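 HEK293 lines stably express B-domain-deleted factor VIII fused to Gaussia luciferase, wild type or a misfolding-prone missense mutant. Scores equal triplicate-well mean luminescence minus DMSO mean, divided by DMSO standard deviation; scores of 2 or higher are hits. Low scores may indicate reduced secretion or worse cell viability.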
Assays:
[1] = test system: HEK293 WT BDD-FVIII-Gluc; assay: secreted FVIII-Gluc luciferase Z-score vs DMSO control; higher = more FVIII-Gluc secretion; conditions: 5 µM; 24 h
[2] = test system: HEK293 p.N1941S BDD-FVIII-Gluc; assay: as above; conditions: 5 µM; 24 h

SMILES | secreted FVIII-Gluc luciferase Z-score [1] | secreted FVIII-Gluc luciferase Z-score [2]
COC(=O)C1=C(C)NC(C)=C(C(=O)OCC(C)C)C1c1ccccc1[N+](=O)[O-] (stereo not drawn) [Nisoldipine (Sular)] | inactive: -4.3 | inactive: -0.749
CCOC(=O)OC(C)OC1=C(C(=O)Nc2ccccn2)N(C)S(=O)(=O)c2ccccc21 (stereo not drawn) [Ampiroxicam] | inactive: -0.857 | inactive: -0.98
Nc1nc2ccc(OC(F)(F)F)cc2s1 [Riluzole (Rilutek)] | inactive: 0.00217 | inactive: 0.271
CN(C)CCC[C@@]1(c2ccc(F)cc2)OCc2cc(C#N)ccc21 [Escitalopram oxalate] | inactive: -0.565 | inactive: -0.0953
O=C(C[S+]([O-])Cc1ccco1)NC/C=C\COc1cc(CN2CCCCC2)ccn1 (stereo not drawn) [Lafutidine] | inactive: 0.877 | inactive: -0.453
C[N+](C)(C)CCOC(N)=O [Carbachol] | inactive: -3.98 | active: 2.02
C[N+]1(C)[C@@H]2C[C@@H](OC(=O)C(O)(c3cccs3)c3cccs3)C[C@H]1[C@@H]1O[C@@H]12 [Tiotropium Bromide hydrate] | inactive: -1.37 | inactive: -1.02
CC(C)(O)c1ccccc1CC[C@@H](SCC1(CC(=O)O)CC1)c1cccc(/C=C/c2ccc3ccc(Cl)cc3n2)c1 [Montelukast Sodium] | inactive: -0.721 | inactive: -1.34
CC(C)n1c(/C=C/C(O)CC(O)CC(=O)O)c(-c2ccc(F)cc2)c2ccccc21 (stereo not drawn) [Fluvastatin sodium (Lescol)] | inactive: -3.08 | inactive: -4.48
NCC(=O)CCC(=O)O [5-Aminolevulinic acid hydrochloride] | inactive: 1.04 | inactive: 0.32
CC(C)NCC(O)COc1ccc(CCOCC2CC2)cc1 (stereo not drawn) [Betaxolol hydrochloride (Betoptic)] | inactive: -2.4 | inactive: -1.53
COc1cc2ncnc(Nc3ccc(F)c(Cl)c3)c2cc1OCCCN1CCOCC1 [Gefitinib (Iressa)] | inactive: -1.43 | inactive: -4.2
O=C(O)Cc1ccccc1Nc1c(Cl)cccc1Cl [Diclofenac Diethylamine] | active: 2.39 | inactive: 0.112
O=C([O-])c1ccccc1O.[Na+] [Sodium salicylate] | inactive: 1.58 | inactive: 0.471
CC[C@]1(O)C[C@H]2CN(CCc3c([nH]c4ccccc34)[C@@](C(=O)OC)(c3cc4c(cc3OC)N(C=O)[C@H]3[C@@](O)(C(=O)OC)[C@H](OC(C)=O)[C@]5(CC)C=CCN6CC[C@]43[C@@H]65)C2)C1 [Vincristine sulfate] | inactive: -4.12 | inactive: -13.9
CN(C)CCOC(C)(c1ccccc1)c1ccccn1 (stereo not drawn) [Doxylamine Succinate] | inactive: -0.673 | inactive: -0.201
CC(C[N+](C)(C)C)OC(N)=O (stereo not drawn) [Bethanechol chloride] | inactive: 0.126 | inactive: -6.17
CCN[C@H]1CN(CCCOC)S(=O)(=O)c2sc(S(N)(=O)=O)cc21 [Brinzolamide] | inactive: -1.39 | inactive: -1.52
CCCNC(C)C(=O)Nc1c(C)csc1C(=O)OC (stereo not drawn) [Articaine HCl] | inactive: -0.662 | inactive: -1.25
CCc1nc(N)nc(N)c1-c1ccc(Cl)cc1 [Pyrimethamine] | inactive: -2.58 | inactive: -2.15
C/C(O)=C(\C#N)C(=O)Nc1ccc(C(F)(F)F)cc1 [Teriflunomide] | inactive: -1.13 | inactive: 0.227
N=C(N)c1ccc(OCCCCCOc2ccc(C(=N)N)cc2)cc1 [Pentamidine] | inactive: -2.22 | inactive: -1.45
CC1=NN(c2ccccc2)C(=O)C1 [Edaravone (MCI-186)] | inactive: -4.6 | inactive: -0.2
Oc1ccc(OCc2ccccc2)cc1 [Monobenzone (Benoquin)] | inactive: -3.2 | inactive: -2.07
CCOc1nc2cccc(C(=O)O)c2n1Cc1ccc(-c2ccccc2-c2noc(=O)[nH]2)cc1 [Azilsartan (TAK-536)] | inactive: 0.768 | inactive: 0.127
COc1ccc2cccc(CCNC(C)=O)c2c1 [Agomelatine] | inactive: 0.511 | inactive: 1.56
CN(C)CC/C=C1/c2ccccc2Sc2ccc(Cl)cc21 [Chlorprothixene] | inactive: -3.54 | inactive: -1.91
COc1ccc([C@@H]2Sc3ccccc3N(CCN(C)C)C(=O)[C@@H]2OC(C)=O)cc1 [Diltiazem HCl (Tiazac)] | inactive: -4.29 | inactive: -2.23
NNC(=O)c1ccncc1.Nc1ccc(C(=O)O)c(O)c1 [Pasiniazid] | inactive: -1.57 | inactive: 1.41

Source: the supplement of paper PMC12024529
